The source of these data is patent US20100190693A1.

The chains behind the UniProt entries cited, without tags or fusion partners.
UniProt P62258: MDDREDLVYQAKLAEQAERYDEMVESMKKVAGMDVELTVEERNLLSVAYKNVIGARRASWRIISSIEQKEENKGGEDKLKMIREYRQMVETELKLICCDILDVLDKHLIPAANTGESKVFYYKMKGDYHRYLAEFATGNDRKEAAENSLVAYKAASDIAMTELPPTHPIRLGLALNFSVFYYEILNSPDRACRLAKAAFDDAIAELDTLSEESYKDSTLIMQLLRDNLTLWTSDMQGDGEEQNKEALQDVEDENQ

No constants are given. Whether binding was seen depends on the method and setting. In cells and extracts the contact can be indirect. These calls come from enrichment with a bait or labelling near it, and not all partners need be listed. Where a sequence is shown, tags or fusion partners need not be part of it.

This experiment has as its target 14-3-3ε (UniProt P62258). Kind of experiment: proteomic (mass spectrometry) analysis of Flag immunoprecipitates; coverage not tied to one TORC.

B1: Flag-tagged TORC1 (protein, UniProt Q6UUV9 1-634, looked up, not shown: small tags and cut ends)
chain: MATSNNPRKFSEKIALHNQKQAEETAAFEEVMKDLSLTRAARLQLQKSQYLQLGPSRGQYYGGSLPNVNQIGSGTMDLPFQTPFQSSGLDTSRTTRHHGLVDRVYRERGRLGSPHRRPLSVDKHGRQADSCPYGTMYLSPPADTSWRRTNSDSALHQSTMTPTQPESFSSGSQDVHQKRVLLLTVPGMEETTSEADKNLSKQAWDTKKTGSRPKSCEVPGINIFPSADQENTTALIPATHNTGGSLPDLTNIHFPSPLPTPLDPEEPTFPALSSSSSTGNLAANLTHLGIGGAGQGMSTPGSSPQHRPAGVSPLSLSTEARRQQASPTLSPLSPITQAVAMDALSLEQQLPYAFFTQAGSQQPPPQPQPPPPPPPASQQPPPPPPPQAPVRLPPGGPLLPSASLTRGPQPPPLAVTVPSSLPQSPPENPGQPSMGIDIASAPALQQYRTSAGSPANQSPTSPVSNQGFSPGSSPQHTSTLGSVFGDAYYEQQMAARQANALSHQLEQFNMMENAISSSSLYSPGSTLNYSQAAMMGLTGSHGSLPDSQQLGYASHSGIPNIILTVTGESPPSLSKELTSSLAGVGDVSFDSDSQFPLDELKIDPLTLDGLHMLNDPDMVLADPATEDTFRMDRL
For B1, the binding result is “binds”.

B2: Flag-tagged TORC2 (protein, UniProt Q53ET0 1-693, looked up, not shown: small tags and cut ends)
chain: MATSGANGPGSATASASNPRKFSEKIALQKQRQAEETAAFEEVMMDIGSTRLQAQKLRLAYTRSSHYGGSLPNVNQIGSGLAEFQSPLHSPLDSSRSTRHHGLVERVQRDPRRMVSPLRRYTRHIDSSPYSPAYLSPPPESSWRRTMAWGNFPAEKGQLFRLPSALNRTSSDSALHTSVMNPSPQDTYPGPTPPSILPSRRGGILDGEMDPKVPAIEENLLDDKHLLKPWDAKKLSSSSSRPRSCEVPGINIFPSPDQPANVPVLPPAMNTGGSLPDLTNLHFPPPLPTPLDPEETAYPSLSGGNSTSNLTHTMTHLGISRGMGLGPGYDAPGLHSPLSHPSLQSSLSNPNLQASLSSPQPQLQGSHSHPSLPASSLARHVLPTTSLGHPSLSAPALSSSSSSSSTSSPVLGAPSYPASTPGASPHHRRVPLSPLSLLAGPADARRSQQQLPKQFSPTMSPTLSSITQGVPLDTSKLSTDQRLPPYPYSSPSLVLPTQPHTPKSLQQPGLPSQSCSVQSSGGQPPGRQSHYGTPYPPGPSGHGQQSYHRPMSDFNLGNLEQFSMESPSASLVLDPPGFSEGPGFLGGEGPMGGPQDPHTFNHQNLTHCSRHGSGPNIILTGDSSPGFSKEIAAALAGVPGFEVSAAGLELGLGLEDELRMEPLGLEGLNMLSDPCALLPDPAVEESFRSDRLQ
modifications: phosphorylated in cells (Ser171 and other serines)
As for B2, the binding result is on record as “binds”.
